The record followed here is publication doi:10.1101/423210.

The chains behind the UniProt entries cited, without tags or fusion partners.
UniProt P11147: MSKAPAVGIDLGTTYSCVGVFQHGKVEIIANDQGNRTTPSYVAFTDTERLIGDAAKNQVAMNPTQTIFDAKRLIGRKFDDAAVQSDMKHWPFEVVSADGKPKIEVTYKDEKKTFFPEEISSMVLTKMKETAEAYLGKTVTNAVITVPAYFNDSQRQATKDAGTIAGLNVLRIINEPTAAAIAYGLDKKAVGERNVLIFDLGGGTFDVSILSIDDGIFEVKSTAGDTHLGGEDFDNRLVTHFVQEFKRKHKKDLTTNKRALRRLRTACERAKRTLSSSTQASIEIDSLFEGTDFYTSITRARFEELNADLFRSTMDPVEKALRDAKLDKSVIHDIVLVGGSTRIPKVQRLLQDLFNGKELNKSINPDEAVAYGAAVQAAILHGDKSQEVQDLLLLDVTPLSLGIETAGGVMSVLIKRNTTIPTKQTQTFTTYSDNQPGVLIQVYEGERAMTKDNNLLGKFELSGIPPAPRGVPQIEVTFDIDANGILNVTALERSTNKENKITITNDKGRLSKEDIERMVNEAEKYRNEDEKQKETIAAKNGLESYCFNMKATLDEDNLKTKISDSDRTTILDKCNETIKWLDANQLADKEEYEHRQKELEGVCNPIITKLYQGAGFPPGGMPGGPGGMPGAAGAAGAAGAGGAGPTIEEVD
UniProt P02828: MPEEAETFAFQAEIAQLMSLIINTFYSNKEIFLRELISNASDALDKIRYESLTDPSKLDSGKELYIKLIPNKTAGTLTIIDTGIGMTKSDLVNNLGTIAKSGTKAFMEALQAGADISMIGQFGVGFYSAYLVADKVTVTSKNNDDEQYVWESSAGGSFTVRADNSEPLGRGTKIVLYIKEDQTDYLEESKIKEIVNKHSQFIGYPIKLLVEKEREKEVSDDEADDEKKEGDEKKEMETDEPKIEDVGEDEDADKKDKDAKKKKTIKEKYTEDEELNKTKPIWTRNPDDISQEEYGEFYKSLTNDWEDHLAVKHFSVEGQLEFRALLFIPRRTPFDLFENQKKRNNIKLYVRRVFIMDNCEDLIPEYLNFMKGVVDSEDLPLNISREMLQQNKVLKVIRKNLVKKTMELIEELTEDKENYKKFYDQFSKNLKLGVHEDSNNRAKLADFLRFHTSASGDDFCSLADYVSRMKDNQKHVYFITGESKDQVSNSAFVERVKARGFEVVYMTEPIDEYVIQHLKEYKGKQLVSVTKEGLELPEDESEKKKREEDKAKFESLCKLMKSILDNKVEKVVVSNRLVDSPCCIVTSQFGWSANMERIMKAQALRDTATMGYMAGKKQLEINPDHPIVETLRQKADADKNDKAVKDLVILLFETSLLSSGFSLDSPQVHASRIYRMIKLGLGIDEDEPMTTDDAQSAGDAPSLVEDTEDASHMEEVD

Test [1] deals with T1, Ago3 (Drosophila melanogaster (endogenous in ovaries)) (UniProt Q7PLK0).
T1 sequence: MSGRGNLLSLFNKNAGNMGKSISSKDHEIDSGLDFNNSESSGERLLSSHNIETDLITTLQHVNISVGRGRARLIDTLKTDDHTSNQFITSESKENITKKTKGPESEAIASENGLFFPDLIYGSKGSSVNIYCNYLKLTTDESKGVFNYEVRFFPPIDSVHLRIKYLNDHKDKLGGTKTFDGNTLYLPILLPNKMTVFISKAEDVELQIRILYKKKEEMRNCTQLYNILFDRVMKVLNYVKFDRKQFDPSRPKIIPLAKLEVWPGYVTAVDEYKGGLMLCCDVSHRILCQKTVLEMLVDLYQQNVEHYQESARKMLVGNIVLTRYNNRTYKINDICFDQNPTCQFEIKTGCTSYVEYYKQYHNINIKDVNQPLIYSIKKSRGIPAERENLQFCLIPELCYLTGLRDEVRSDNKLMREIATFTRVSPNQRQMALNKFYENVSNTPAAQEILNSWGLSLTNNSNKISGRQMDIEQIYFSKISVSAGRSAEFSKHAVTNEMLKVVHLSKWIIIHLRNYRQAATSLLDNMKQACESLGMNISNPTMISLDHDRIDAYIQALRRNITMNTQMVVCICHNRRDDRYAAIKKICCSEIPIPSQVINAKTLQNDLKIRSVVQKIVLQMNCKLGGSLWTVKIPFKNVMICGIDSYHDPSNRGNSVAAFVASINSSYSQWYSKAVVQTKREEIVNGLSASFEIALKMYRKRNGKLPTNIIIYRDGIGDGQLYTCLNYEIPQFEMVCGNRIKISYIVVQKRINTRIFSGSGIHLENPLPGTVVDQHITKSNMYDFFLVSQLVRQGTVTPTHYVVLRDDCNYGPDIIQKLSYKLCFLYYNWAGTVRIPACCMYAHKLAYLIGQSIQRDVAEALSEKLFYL
The test can be described thus: co-IP.

For test [2], the target named is T2, Ago3 (Drosophila melanogaster (endogenous in ovaries)), Q7PLK0.
T2 chain: T1 sequence
The test is described as follows: co-IP. The conditions noted are these: remark: other sources report otherwise.

Results are given in words; binding and its absence hold for the method and conditions named. In cells and extracts the contact can be indirect. Some entries that bind do so weakly or less than the wild type.

Take Hsc70-4 (from UniProt P11147 1-651): the binding result in test [1] was “binds”.
Hsp90 (from UniProt P02828 1-717): in test [1], the binding entry is “binds”.

B1: dFKBP59 (protein, UniProt Q9VL78 1-439)
chain: MPEGNKIDLSGDGGVLKEILKEGTGTETPHSGCTVSLHYTGRLVDGTEFDSSLSRNEPFEFSLGKGNVIKAFDMGVATMKLGERCFLTCAPNYAYGAAGSPPAIPPDATLIFELEMLGWKGEDLSPNQDGSIDRTILEASDKKRTPSDGAFVKAHISGSFEGRVFEDRDVEFDYGEGKAIGIIDGVEIALEKMNVGETSRIKIQAKYAFGAKGNEEFKIPPNATVEYTVKLVDCGKGLEEWKLSDEERLAEAKVYKEKGTNYFKKENWALAIKMYTKCKNILPTTVHTNEEVKKIKVATHSNIALCHQKSNDHFEAKQECNEVLALDKNNVKALYRRGQCNLTINELEDALEDFQKVIQLEPGNKAAANQVIICKQKLKESKNKEKKLYANMFTKLAANDKETEPPRETDVLSKCGEWSEEDAKREAELTLERDNIIMI
With B1, in test [1], the binding entry is reported as “binds”.

B2: Aubergine, O76922 1-866 (protein)
chain: MNLPPNPVIARGRGRGRKPNNVEANRGFAPSLGQKSDPSHSEGNQASGGNGGGGDAQVGPSIEKSSLSAVQMHKSEGDPRGSVRGRRLITDLVYSRPPGMTSKKGVVGTHITVQANYFKVLKRPNWTIYQYRVDFTPDVEATRLRRSFLYEHKGILGGYIFDGTNMFCINQFKAVQDSPYVLELVTKSRAGENIEIKIKAVGSVQSTDAEQFQVLNLILRRAMEGLDLKLVSRYYYDPQAKINLENFRMQLWPGYQTSIRQHENDILLCSEICHKVMRTETLYNILSDAIRDSDDYQSTFKRAVMGMVILTDYNNKTYRIDDVDFQSTPLCKFKTNDGEISYVDYYKKRYNIIIRDLKQPLVMSRPTDKNIRGGNDQAIMIIPELARATGMTDAMRADFRTLRAMSEHTRLNPDRRIERLRMFNKRLKSCKQSVETLKSWNIELDSALVEIPARVLPPEKILFGNQKIFVCDARADWTNEFRTCSMFKNVHINRWYVITPSRNLRETQEFVQMCIRTASSMKMNICNPIYEEIPDDRNGTYSQAIDNAAANDPQIVMVVMRSPNEEKYSCIKKRTCVDRPVPSQVVTLKVIAPRQQKPTGLMSIATKVVIQMNAKLMGAPWQVVIPLHGLMTVGFDVCHSPKNKNKSYGAFVATMDQKESFRYFSTVNEHIKGQELSEQMSVNMACALRSYQEQHRSLPERILFFRDGVGDGQLYQVVNSEVNTLKDRLDEIYKSAGKQEGCRMTFIIVSKRINSRYFTGHRNPVPGTVVDDVITLPERYDFFLVSQAVRIGTVSPTSYNVISDNMGLNADKLQMLSYKMTHMYYNYSGTIRVPAVCHYAHKLAFLVAESINRAPSAGLQNQLYFL
Consider B2, for which, in test [2], the binding entry was “no binding”.
